{"sequences": {"note": "The chains behind the UniProt entries cited, without tags or fusion partners. Residues count along the entry.", "UniProt P00004, 2-105": "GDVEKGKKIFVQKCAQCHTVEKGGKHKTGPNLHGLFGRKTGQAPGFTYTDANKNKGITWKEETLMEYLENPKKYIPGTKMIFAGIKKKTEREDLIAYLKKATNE"}, "source": "paper PMC12572689", "molecular_target": "cytochrome c (Equus caballus (equine heart)) (UniProt P00004)", "experiment": "absorption spectroscopy", "details": "cited value, cyt c source of cited work not stated; commercial protein; single-stranded DNA", "note": "For at least one entry, the source does not settle the construct or the ends of the probe."}
{"sequence": "AGTGTGAAATATCTAAACTAAATGTGGAGGGTGGGACGGGAAGAAGTTTATTTTTCACACT [Apt61]", "values": [{"measurement": "Kd", "result": 4.6, "unit": "µM"}]}
